The list shows a part of the results.
Legend:
Test in all cases: log2 fold change, soluble protein after heating vs DMSO (PISA); higher = thermal stabilisation; K562 cells, 10 uM, 30 min; active = over 0.2 and 3.5 SD of the protein, either way, in both replicates (recomputed)
[1] = compound: CS(=O)(=O)c1ccc(-c2cnc(N)c(C(=O)Nc3ccccc3)n2)cc1
Procedure, shortened: (§1)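 Soluble protein was defined as the supernatant after 21,000xg for 90 min. It came from K562 cells at 2×10^6 cells/mL given 10 μM compound for 30 min, heated in aliquots for 3 min across 48°C-58°C, pooled, and extracted in PBS with 0.5% NP-40 at 4°C, and was quantified by TMTpro 16plex LC-MS/MS with equalised channel sums. Thermal stability against control samples, from duplicates, is reported as log2 fold change.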

Sequences of proteins named here, by UniProt entry; tags and fusion partners are left off. A change or cut given only in a name is not applied to a line headed by its entry.
UniProt O14763, whole entry, looked up: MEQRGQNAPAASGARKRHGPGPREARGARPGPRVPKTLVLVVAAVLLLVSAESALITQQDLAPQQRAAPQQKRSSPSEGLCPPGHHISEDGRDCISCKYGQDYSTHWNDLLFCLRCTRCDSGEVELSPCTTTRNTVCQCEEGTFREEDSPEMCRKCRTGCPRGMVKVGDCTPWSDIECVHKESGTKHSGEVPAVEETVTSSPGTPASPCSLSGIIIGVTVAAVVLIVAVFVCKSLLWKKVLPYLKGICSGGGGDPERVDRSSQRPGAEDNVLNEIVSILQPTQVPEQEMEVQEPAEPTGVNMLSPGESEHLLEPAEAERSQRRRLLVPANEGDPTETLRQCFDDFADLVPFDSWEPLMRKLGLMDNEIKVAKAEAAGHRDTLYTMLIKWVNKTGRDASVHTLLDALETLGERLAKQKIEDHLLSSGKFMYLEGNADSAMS
UniProt Q9UM00: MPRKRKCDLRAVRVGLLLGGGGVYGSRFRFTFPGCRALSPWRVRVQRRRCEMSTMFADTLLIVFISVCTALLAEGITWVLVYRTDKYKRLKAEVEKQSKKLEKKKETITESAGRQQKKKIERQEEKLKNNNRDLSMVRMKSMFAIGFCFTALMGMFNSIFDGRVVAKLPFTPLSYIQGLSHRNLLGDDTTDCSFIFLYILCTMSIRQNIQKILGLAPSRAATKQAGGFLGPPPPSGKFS
UniProt Q9BTX3: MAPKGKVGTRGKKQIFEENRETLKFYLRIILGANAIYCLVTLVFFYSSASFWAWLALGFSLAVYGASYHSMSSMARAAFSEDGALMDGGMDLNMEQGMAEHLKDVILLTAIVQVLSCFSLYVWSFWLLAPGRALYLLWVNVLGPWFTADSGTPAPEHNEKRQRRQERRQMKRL
UniProt Q5U3C3: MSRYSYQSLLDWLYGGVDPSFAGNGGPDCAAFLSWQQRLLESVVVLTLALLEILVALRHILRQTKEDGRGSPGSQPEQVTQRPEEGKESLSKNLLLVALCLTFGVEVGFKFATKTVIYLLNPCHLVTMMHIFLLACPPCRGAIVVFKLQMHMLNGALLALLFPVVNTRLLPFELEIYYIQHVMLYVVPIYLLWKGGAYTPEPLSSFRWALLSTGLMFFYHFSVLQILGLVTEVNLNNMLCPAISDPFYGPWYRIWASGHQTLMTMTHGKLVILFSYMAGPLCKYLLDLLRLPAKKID
UniProt Q96A57: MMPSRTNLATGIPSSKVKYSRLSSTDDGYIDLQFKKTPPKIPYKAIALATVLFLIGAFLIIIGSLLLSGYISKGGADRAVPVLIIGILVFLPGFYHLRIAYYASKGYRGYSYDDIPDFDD
UniProt Q96JJ7: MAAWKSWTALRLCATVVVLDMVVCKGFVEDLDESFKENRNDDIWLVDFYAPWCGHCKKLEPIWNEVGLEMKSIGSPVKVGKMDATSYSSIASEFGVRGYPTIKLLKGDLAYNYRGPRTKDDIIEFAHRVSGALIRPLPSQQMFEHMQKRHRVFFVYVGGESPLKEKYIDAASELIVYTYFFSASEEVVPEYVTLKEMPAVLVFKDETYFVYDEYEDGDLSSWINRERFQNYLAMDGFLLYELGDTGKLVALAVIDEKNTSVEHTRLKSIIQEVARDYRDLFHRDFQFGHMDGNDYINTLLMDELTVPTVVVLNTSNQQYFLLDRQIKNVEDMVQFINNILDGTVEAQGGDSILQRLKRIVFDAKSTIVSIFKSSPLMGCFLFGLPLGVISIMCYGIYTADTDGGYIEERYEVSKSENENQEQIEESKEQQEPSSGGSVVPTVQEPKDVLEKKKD
UniProt O95379: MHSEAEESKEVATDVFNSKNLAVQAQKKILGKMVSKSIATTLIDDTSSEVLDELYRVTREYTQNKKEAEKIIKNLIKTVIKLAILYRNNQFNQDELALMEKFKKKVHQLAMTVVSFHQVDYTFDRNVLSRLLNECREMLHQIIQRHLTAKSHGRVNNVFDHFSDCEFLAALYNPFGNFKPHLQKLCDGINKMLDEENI
UniProt Q96B77: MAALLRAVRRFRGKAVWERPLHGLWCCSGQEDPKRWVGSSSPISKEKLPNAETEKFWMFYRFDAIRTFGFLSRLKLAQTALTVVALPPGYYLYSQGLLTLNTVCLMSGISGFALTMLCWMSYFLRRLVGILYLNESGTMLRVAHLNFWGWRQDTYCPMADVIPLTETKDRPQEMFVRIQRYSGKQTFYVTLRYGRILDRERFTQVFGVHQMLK
UniProt Q9BUB7: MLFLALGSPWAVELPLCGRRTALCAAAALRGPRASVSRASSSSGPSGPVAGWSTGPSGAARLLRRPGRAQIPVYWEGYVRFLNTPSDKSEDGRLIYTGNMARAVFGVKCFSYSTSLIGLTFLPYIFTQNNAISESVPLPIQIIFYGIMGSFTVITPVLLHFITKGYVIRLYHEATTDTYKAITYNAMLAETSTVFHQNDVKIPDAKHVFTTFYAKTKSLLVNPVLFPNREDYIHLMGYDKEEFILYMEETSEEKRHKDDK
UniProt Q71RG4: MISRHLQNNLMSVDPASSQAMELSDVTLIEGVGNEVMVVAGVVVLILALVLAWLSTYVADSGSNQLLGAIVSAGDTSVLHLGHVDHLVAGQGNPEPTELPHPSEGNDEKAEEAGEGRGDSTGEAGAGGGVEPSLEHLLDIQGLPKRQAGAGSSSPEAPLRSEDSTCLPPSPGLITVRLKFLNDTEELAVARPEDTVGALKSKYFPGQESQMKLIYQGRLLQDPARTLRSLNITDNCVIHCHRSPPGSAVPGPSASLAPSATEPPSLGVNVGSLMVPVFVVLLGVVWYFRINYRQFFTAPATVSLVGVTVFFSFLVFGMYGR
UniProt Q6ZXV5: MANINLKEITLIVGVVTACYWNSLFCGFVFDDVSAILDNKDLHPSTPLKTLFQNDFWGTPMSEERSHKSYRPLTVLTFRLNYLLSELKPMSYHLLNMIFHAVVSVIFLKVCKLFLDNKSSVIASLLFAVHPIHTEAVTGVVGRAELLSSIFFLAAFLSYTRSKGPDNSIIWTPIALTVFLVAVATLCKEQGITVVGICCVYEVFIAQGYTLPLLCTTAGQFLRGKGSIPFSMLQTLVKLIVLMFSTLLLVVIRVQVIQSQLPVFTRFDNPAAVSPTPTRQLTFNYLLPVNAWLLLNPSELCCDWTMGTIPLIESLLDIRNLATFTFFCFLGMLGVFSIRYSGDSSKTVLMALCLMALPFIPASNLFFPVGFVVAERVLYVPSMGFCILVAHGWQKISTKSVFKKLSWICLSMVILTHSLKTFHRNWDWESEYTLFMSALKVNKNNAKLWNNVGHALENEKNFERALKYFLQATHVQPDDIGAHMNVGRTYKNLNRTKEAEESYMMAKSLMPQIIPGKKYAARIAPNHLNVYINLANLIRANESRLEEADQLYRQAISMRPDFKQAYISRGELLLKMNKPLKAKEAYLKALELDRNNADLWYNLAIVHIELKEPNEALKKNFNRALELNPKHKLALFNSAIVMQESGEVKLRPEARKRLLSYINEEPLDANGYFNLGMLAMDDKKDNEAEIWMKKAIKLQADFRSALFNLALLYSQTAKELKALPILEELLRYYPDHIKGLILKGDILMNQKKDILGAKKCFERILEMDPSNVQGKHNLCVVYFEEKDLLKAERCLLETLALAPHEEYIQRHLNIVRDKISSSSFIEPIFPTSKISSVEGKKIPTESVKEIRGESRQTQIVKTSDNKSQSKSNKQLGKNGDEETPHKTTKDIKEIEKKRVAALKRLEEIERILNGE
UniProt Q4ZIN3: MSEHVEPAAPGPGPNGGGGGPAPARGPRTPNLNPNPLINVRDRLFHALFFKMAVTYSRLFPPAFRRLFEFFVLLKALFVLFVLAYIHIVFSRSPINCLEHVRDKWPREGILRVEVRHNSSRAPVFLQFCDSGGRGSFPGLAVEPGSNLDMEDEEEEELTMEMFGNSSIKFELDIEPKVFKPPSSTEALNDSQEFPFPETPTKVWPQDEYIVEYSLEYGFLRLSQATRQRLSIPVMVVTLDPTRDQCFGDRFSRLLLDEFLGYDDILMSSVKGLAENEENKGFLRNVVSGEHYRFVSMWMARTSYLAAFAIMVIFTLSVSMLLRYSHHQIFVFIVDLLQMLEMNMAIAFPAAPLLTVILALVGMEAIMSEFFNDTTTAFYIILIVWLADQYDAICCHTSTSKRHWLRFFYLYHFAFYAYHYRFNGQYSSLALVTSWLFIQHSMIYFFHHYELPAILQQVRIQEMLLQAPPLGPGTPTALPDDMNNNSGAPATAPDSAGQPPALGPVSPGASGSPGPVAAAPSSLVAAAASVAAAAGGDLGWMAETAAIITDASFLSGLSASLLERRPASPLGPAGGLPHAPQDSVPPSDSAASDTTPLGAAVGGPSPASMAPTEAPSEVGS
UniProt P82094: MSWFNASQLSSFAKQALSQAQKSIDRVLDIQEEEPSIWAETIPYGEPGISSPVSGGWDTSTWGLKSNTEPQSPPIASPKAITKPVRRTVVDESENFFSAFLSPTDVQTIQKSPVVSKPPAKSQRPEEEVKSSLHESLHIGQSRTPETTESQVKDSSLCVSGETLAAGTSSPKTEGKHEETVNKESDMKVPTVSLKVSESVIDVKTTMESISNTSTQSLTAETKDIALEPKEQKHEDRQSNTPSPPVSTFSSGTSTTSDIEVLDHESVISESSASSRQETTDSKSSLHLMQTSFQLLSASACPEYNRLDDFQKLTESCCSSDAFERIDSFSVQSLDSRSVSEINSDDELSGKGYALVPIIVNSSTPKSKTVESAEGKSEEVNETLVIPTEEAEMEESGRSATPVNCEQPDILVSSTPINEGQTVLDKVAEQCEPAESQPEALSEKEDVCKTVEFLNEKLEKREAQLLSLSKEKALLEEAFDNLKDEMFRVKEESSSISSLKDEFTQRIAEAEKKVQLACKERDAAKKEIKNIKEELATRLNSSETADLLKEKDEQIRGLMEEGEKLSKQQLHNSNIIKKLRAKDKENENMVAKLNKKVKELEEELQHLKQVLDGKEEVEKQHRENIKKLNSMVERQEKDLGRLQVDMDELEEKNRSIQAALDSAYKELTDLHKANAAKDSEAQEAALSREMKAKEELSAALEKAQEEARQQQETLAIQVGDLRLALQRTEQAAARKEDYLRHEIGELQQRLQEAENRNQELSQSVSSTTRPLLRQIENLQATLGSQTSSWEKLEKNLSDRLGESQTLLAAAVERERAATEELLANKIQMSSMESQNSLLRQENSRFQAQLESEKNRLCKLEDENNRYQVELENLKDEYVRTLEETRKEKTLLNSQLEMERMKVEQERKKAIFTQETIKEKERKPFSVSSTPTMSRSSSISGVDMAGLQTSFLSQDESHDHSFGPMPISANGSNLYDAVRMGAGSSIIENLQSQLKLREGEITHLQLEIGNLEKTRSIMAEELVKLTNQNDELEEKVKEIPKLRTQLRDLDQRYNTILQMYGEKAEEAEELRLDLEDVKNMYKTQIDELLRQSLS
UniProt P42166: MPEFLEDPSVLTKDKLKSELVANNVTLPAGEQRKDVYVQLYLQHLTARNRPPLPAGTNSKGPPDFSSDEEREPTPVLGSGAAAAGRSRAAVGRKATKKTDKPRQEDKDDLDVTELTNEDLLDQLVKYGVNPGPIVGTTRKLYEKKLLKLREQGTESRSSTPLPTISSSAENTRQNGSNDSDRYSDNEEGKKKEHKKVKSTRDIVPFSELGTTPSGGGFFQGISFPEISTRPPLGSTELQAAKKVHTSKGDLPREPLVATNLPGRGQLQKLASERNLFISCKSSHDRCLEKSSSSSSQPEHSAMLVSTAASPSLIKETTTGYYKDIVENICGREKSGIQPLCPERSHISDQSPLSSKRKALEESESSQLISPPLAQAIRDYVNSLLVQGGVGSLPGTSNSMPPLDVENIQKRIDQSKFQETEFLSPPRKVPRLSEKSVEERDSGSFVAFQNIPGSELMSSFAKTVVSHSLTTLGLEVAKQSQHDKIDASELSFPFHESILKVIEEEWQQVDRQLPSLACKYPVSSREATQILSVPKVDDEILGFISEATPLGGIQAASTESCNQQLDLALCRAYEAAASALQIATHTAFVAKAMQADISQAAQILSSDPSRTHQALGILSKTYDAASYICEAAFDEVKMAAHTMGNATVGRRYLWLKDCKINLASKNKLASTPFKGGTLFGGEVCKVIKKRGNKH

[2] = compound: C[C@@H](Oc1cc(-c2cnn(C3CCNCC3)c2)cnc1N)c1c(Cl)ccc(F)c1Cl [crizotinib]
Procedure, shortened: as §1

[3] = compound: C[C@@H]1COCCN1C2=NC(=NC(=C2)C3(CC3)S(=O)(=O)C)C4=C5C=CNC5=CC=C4
Procedure, shortened: as §1

[4] = compound: C[C@H](C1=CC=C(C=C1)C(=O)NC2=C3C=CNC3=NC=C2)N
Procedure, shortened: as §1

[5] = compound: C[C@H](Nc1ncnc2nc[nH]c12)c1cc2cccc(Cl)c2c(=O)n1-c1ccccc1 [duvelisib]
Procedure, shortened: as §1

[6] = compound: Cc1cc(Nc2cc(CN3CCOCC3)c3nc(C)c(Cc4ccc(Cl)cc4F)n3n2)n[nH]1 [gandotinib]
Procedure, shortened: as §1

[7] = compound: Cc1cc(Nc2cc(N3CCN(C)CC3)nc(Sc3ccc(NC(=O)C4CC4)cc3)n2)n[nH]1 [tozasertib]
Procedure, shortened: as §1

[8] = compound: Cc1cc(SCc2sc(-c3ccc(C(F)(F)F)cc3)nc2C)ccc1OCC(=O)O
Procedure, shortened: as §1

[9] = compound: Cc1ccc(-n2nc(C(C)(C)C)cc2NC(=O)Nc2ccc(OCCN3CCOCC3)c3ccccc23)cc1 [doramapimod]
Procedure, shortened: as §1

[10] = compound: Cc1ccc(C(=O)N(CCCN)[C@@H](c2nc3cc(Cl)ccc3c(=O)n2Cc2ccccc2)C(C)C)cc1 [ispinesib]
Procedure, shortened: as §1

[11] = compound: Cc1ccc(NC(=O)c2ccc(CN3CC[C@H](N(C)C)C3)c(C(F)(F)F)c2)cc1Nc1nccc(-c2cncnc2)n1 [bafetinib]
Procedure, shortened: as §1

[12] = compound: Cc1cccc(CC(=O)N2CCc3c2ccc(-c2cn(C)c4ncnc(N)c24)c3F)n1
Procedure, shortened: as §1

[13] = compound: Cc1cn(-c2cc(NC(=O)c3ccc(C)c(Nc4nccc(-c5cccnc5)n4)c3)cc(C(F)(F)F)c2)cn1 [nilotinib]
Procedure, shortened: as §1

[14] = compound: Cc1nc(Nc2n[nH]c3c2CN(C(=O)N[C@H](CN(C)C)c2ccccc2)C3(C)C)c2sccc2n1
Procedure, shortened: as §1

[15] = compound: Cc1nc(Nc2ncc(C(=O)Nc3c(C)cccc3Cl)s2)cc(N2CCN(CCO)CC2)n1 [dasatinib]
Procedure, shortened: as §1

[16] = compound: Cc1ncc(-c2ccnc(Nc3ccc(S(C)(=O)=O)cc3)n2)n1C(C)C
Procedure, shortened: as §1

[17] = compound: Cn1cc(-c2ccc3c(c2)CCN3C(=O)Cc2cccc(C(F)(F)F)c2)c2c(N)ncnc21
Procedure, shortened: as §1

[18] = compound: Cn1cc(-c2ccc3nnc(C(F)(F)c4ccc5ncccc5c4)n3n2)cn1
Procedure, shortened: as §1

[19] = compound: Cn1cncc1[C@@](N)(c1ccc(Cl)cc1)c1ccc2c(c1)c(-c1cccc(Cl)c1)cc(=O)n2C [tipifarnib]
Procedure, shortened: as §1

[20] = compound: FC(F)(F)c1ccc(/C=C/c2nc(COc3ccc(CCCCn4ccnn4)cc3)co2)cc1 [mubritinib]
Procedure, shortened: as §1

Row | Target | log2 fold change [1] | log2 fold change [2] | log2 fold change [3] | log2 fold change [4] | log2 fold change [5] | log2 fold change [6] | log2 fold change [7] | log2 fold change [8] | log2 fold change [9] | log2 fold change [10] | log2 fold change [11] | log2 fold change [12] | log2 fold change [13] | log2 fold change [14] | log2 fold change [15] | log2 fold change [16] | log2 fold change [17] | log2 fold change [18] | log2 fold change [19] | log2 fold change [20]
1 | TMA16 (UniProt Q96EY4) | inactive: -0.02 | inactive: -0.016 | inactive: -0.302 | inactive: 0.356 | inactive: -0.078 | inactive: 0.206 | inactive: 0.051 | inactive: 0.021 | inactive: -0.024 | inactive: -0.178 | inactive: 0.187 | inactive: 0 | inactive: -0.061 | inactive: 0.163 | inactive: 0.112 | inactive: 0.032 | inactive: -0.2 | inactive: -0.163 | inactive: 0.118 | inactive: -0.033
2 | TNFRSF10B (UniProt O14763) | inactive: 0.016 | inactive: 0.094 | inactive: 0.073 | inactive: 0.025 | inactive: 0.21 | inactive: -0.114 | inactive: -0.254 | inactive: -0.024 | inactive: 0.014 |  | inactive: 0.065 | inactive: 0.03 | inactive: 0.003 | inactive: 0.086 | inactive: 0.058 | inactive: 0 | inactive: -0.013 |  | inactive: 0.047 | inactive: 0.105
3 | TMCO1 (UniProt Q9UM00) | inactive: -0.016 | inactive: -0.088 | inactive: 0.081 | inactive: -0.136 | inactive: 0.024 | inactive: -0.166 | inactive: -0.021 | inactive: -0.029 | inactive: 0.002 | inactive: -0.229 | inactive: -0.141 | inactive: -0.088 | inactive: -0.028 | inactive: -0.01 | inactive: -0.008 | inactive: 0.037 | inactive: 0.088 | inactive: 0.089 | inactive: 0.082 | inactive: 0.038
4 | TMEM208 (UniProt Q9BTX3) | inactive: -0.09 | inactive: -0.119 | inactive: 0.134 | inactive: -0.004 |  | inactive: 0.086 |  | inactive: 0.076 | inactive: 0.019 | inactive: -0.243 | inactive: -0.131 | inactive: 0.097 | inactive: -0.101 | inactive: 0.092 | inactive: -0.19 | inactive: 0.185 | inactive: -0.024 | inactive: 0.01 | inactive: -0.223 | inactive: 0.062
5 | TMEM164 (UniProt Q5U3C3) | inactive: 0 | inactive: -0.036 | inactive: 0.139 | inactive: 0.05 | active: 0.601 | inactive: -0.204 |  | inactive: 0.027 | inactive: 0.091 |  | inactive: -0.097 | inactive: -0.155 | inactive: 0.023 | inactive: -0.021 | inactive: 0.048 | inactive: 0.037 | inactive: 0.002 |  | inactive: 0.059 | inactive: -0.067
6 | TMEM230 isoform 2 (UniProt Q96A57) | inactive: -0.038 | inactive: 0.024 | inactive: 0.006 | inactive: -0.168 | inactive: 0.013 | inactive: -0.026 | inactive: -0.071 | inactive: -0.021 | inactive: -0.066 | inactive: -0.02 | inactive: 0.204 | inactive: 0.003 | inactive: 0.024 | inactive: 0.014 | inactive: 0 | inactive: 0.003 | inactive: 0.06 | inactive: 0.005 | inactive: 0.044 | inactive: 0.041
7 | TMX3 (UniProt Q96JJ7) | inactive: -0.046 | inactive: 0.04 | inactive: -0.011 | inactive: 0.093 | inactive: 0.045 | inactive: -0.001 | inactive: -0.008 | inactive: 0 | inactive: 0.025 | inactive: 0.056 | inactive: -0.04 | inactive: -0.073 | inactive: -0.02 | inactive: 0.012 | inactive: 0.036 | inactive: -0.031 | inactive: -0.029 | inactive: 0.012 | inactive: 0.026 | inactive: -0.011
8 | TMEM189-UBE2V1 (UniProt I3L0A0) | inactive: 0.063 | inactive: 0.022 | inactive: 0.051 | inactive: 0.051 |  | inactive: 0.007 |  | inactive: -0.034 | inactive: 0.021 | inactive: 0.071 | inactive: -0.038 | inactive: -0.035 | inactive: -0.012 | active: 0.229 | inactive: -0.009 | inactive: 0.055 | inactive: 0.015 | inactive: 0.069 | inactive: 0.056 | inactive: 0.026
9 | TNFAIP8 isoform 4 (UniProt O95379) | inactive: 0.005 | inactive: 0 | inactive: 0.122 | inactive: -0.099 |  | inactive: -0.073 |  | inactive: -0.046 | inactive: -0.016 | inactive: -0.046 | inactive: -0.079 | inactive: 0.014 | inactive: -0.045 | inactive: -0.095 | inactive: -0.109 | inactive: 0.007 | inactive: 0.047 | inactive: 0.005 | inactive: -0.023 | inactive: 0.031
10 | TMEM186 (UniProt Q96B77) | inactive: -0.07 | inactive: -0.005 | inactive: -0.039 | inactive: -0.086 | inactive: -0.022 |  | inactive: 0.003 | inactive: -0.083 | inactive: 0.049 | inactive: -0.079 | inactive: -0.011 |  | inactive: -0.082 | inactive: 0.005 | inactive: 0.059 | inactive: 0.09 | inactive: -0.007 | inactive: 0.033 | inactive: 0.046 | inactive: 0.049
11 | TMEM70 (UniProt Q9BUB7) | inactive: 0.025 | inactive: -0.096 | inactive: 0.035 | inactive: 0.002 |  | inactive: -0.08 |  | inactive: 0.087 | inactive: -0.017 | inactive: -0.243 | inactive: -0.141 | inactive: 0.026 | inactive: 0.028 | inactive: -0.003 | inactive: -0.094 | inactive: 0.018 | inactive: 0.06 | inactive: 0.023 | inactive: -0.02 | inactive: 0.017
12 | TMUB2 (UniProt Q71RG4) | inactive: -0.101 | inactive: 0.006 | inactive: -0.014 | inactive: 0.035 | inactive: -0.067 | inactive: -0.042 | inactive: -0.049 | inactive: -0.103 | inactive: 0.052 | inactive: -0.101 | inactive: 0.026 | inactive: -0.112 | inactive: 0.03 | inactive: 0.256 | inactive: 0.118 | inactive: 0.096 | inactive: 0.003 | inactive: 0.021 | inactive: 0.101 | inactive: 0.079
13 | TMTC3 (UniProt Q6ZXV5) | inactive: 0.054 | inactive: -0.088 | inactive: -0.052 | inactive: 0.072 |  | inactive: -0.039 |  | inactive: 0.038 | inactive: 0.018 | inactive: -0.188 | inactive: -0.07 | inactive: -0.02 | inactive: -0.036 | inactive: 0 | inactive: -0.055 | inactive: 0.015 | inactive: -0.051 | inactive: 0.061 | inactive: -0.018 | inactive: 0.011
14 | TMEM259 (UniProt Q4ZIN3) | inactive: 0.008 | inactive: 0.026 | inactive: 0.016 | inactive: -0.005 | inactive: 0.047 | inactive: 0.067 | inactive: 0.037 | inactive: 0.066 | inactive: 0.07 | inactive: -0.059 | inactive: -0.141 | inactive: -0.006 | inactive: -0.074 | inactive: -0.002 | inactive: -0.014 | inactive: -0.015 | inactive: 0.025 | inactive: 0.02 | inactive: 0.038 | inactive: -0.019
15 | TMF1 (UniProt P82094) | inactive: -0.033 | inactive: 0.039 | inactive: -0.006 | inactive: -0.037 | inactive: 0.012 | inactive: -0.003 | inactive: 0.026 | inactive: -0.044 | inactive: 0.011 | inactive: 0.004 | inactive: -0.089 | inactive: -0.04 | inactive: 0.044 | inactive: 0.046 | inactive: 0.04 | inactive: 0.036 | inactive: -0.014 | inactive: 0.007 | inactive: 0.021 | inactive: 0.033
16 | TMPO (UniProt P42166) | inactive: 0.032 | inactive: -0.005 | inactive: 0.022 | inactive: 0.187 | inactive: -0.055 | inactive: -0.079 | inactive: -0.059 | inactive: -0.013 | inactive: -0.019 | inactive: -0.046 | inactive: -0.066 | inactive: 0.024 | inactive: 0.001 | inactive: -0.068 | inactive: -0.099 | inactive: 0.004 | inactive: 0.03 | inactive: -0.037 | inactive: 0.006 | inactive: 0.054

Some entries already given, limited to log2 fold change [8] and log2 fold change [19].
Row | Target | log2 fold change [8] | log2 fold change [19]
9 | TNFAIP8 isoform 4 (UniProt O95379) | inactive: -0.046 | inactive: -0.023
10 | TMEM186 (UniProt Q96B77) | inactive: -0.083 | inactive: 0.046
